Experimental data from PubChem BioAssay AID1259415 (National Center for Advancing Translational Sciences (NCATS), 2018).
Several values for one entry are separate records, joined by “and”; a condition that tells them apart may be missing. Identical values can stand only once. Out of some 410,000 compounds screened, about 18,000 (4.4%) were called active. This list was built around the results that the source calls inconclusive (neither active nor inactive); the mix of calls is not that of the screen. Rule as the data show it: active = activity change below about -60%; inconclusive = no clear call, values can overlap the other calls; inactive = above about -39%.

Test: qHTS Assay for inhibitors of the human cytomegalovirus (HCMV)
Settings: HFF cells, HCMV-luciferase reporter, 72 h; at 57.5 µM; stronger effect = lower value
Method in brief: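 Two-dose cell screen: HFF monolayers treated with compounds and infected with luciferase-expressing HCMV at 1 PFU/cell, 72 h at 37C, then lysed for luciferase measurement.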
% is scaled to controls: 0 for no effect and ±100 for the full control effect.

Row | SMILES | activity change, negative = inhibition
1 | COc1cccc2c1Oc1ncccc1N(C(=O)Nc1ccc(F)c(Cl)c1)C2 | inactive: -37.7%
2 | CN(C)S(=O)(=O)c1cccc(NS(=O)(=O)c2ccc(Cl)s2)c1 | inconclusive: -43.9%
3 | CC(=O)N=c1sc2cc(C)ccc2n1C | inconclusive: -47%
4 | O=C(COc1ccccc1Br)N1CCNC1=O | inconclusive: -48.2%
5 | CS(=O)(=O)N(CC(=O)N1CCN(c2ccccc2)CC1)Cc1ccc(Cl)cc1 | inconclusive: -42.8%
6 | COC(=O)c1ccccc1NC(=O)c1cccc(NC(=O)CSCc2ccccc2)c1C | inconclusive: -55%
7 | CCn1c(O)c(N=NC(=O)c2cccnc2)c2cc(Br)ccc21 | inactive: -25.7%
8 | Cn1c(CCN2CCCC2)nc2cc(NC(=O)COc3ccc(Cl)cc3)ccc21 | inconclusive: -55.5%
9 | Cc1nc2ccccc2n1CCc1nc2c3ccccc3nc(SCC(=O)NCc3ccco3)n2n1 | active: -61.7%
10 | Cc1ccc(N2CCN(C(=O)Nc3cccc([N+](=O)[O-])c3)CC2C)cc1 (stereo not given) | active: -64.8%
11 | Cc1cc(C)cc(NS(=O)(=O)c2ccc3c(c2)NC(=O)C(C)S3)c1 (stereo not given) | inconclusive: -42.3%
12 | Cc1cc(/C=N/NC(=O)Cn2c3ccccc3c(=O)c3ccccc32)c(C)n1-c1ccccc1 | inconclusive: -51.1%
13 | CSc1nc(SCC(=O)NCc2ccco2)c2c3c(sc2n1)COC(C)(C)C3 | inactive: 8.8%
14 | Nc1ccc(CCn2ccnc2)cc1 | inconclusive: -54.2%
15 | CCCCCCCCCCOC(=O)Cn1c(COc2ccccc2OC)[n+](C)c2ccccc21 | inconclusive: -50.2%
16 | CC1(C)Cc2c(cnn2-c2ccccc2)C(NC(=O)CCCN2CCCCC2=O)C1 (stereo not given) | inactive: -13.2%
17 | Cc1ccc(S(=O)(=O)Nc2nc3c(s2)C(=O)CC(C)(C)C3)cc1 | inactive: 16.7%
18 | CCCCCCC[C@@H](C/C=C/CCC(=O)N(C)C/C(=C/Cl)C/C(=C\C(=O)N1CC(OC)=CC1=O)OC)OC | inconclusive: -47.5%
19 | N#Cc1c(NC(=O)CSc2ncn[nH]2)sc2c1CCCCC2 | active: -63.7%
20 | COc1ccc(-c2cc(CNc3nc(NC(C)C)nc4cc(-c5ccccc5)sc34)on2)cc1 | active: -99%
21 | COc1cc2c(=O)[nH]c3cc([N+](=O)[O-])ccc3c2cc1[N+](=O)[O-] | active: -94.1%
22 | COc1ccc(S(=O)(=O)NCC(c2ccco2)N2CCc3ccccc3C2)cc1 (stereo not given) | active: -94.5%

Row | SMILES | activity change, negative = inhibition
23 | COc1ccc(N2CCN(S(=O)(=O)c3ccc4c(c3)NC(=O)CS4)CC2)cc1 | inconclusive: -47.7%
24 | CC1CC(CCC(=O)NC(=S)Nc2ccc(Cl)cn2)C(=O)O1 (stereo not given) | inconclusive: -54.3%
25 | CCCCn1c(SCC(=O)N(C)C2CCS(=O)(=O)C2)nc2cc(S(N)(=O)=O)ccc21 (stereo not given) | active: -61.1%
26 | CCOC(=O)C1=CC[C@@H](c2ccccc2)N(S(=O)(=O)c2ccc(C)cc2)[C@H]1C=C(C)C | inconclusive: -51.1%
27 | COc1ccc(NC(=O)C2CCCCC2)cc1S(=O)(=O)N1CCOCC1 | inactive: 10.7%
28 | Cc1ccc(C)c(N2C(=O)N(Cc3cc(=O)n4ccccc4n3)c3ccccc3S2(=O)=O)c1 | inconclusive: -41.1%
29 | O=C1c2cnccc2CN1Cc1ccccc1 | inactive: 19.1%
30 | COc1cccc(CN2CC(C(=O)N3CCSCC3)CCC2=O)c1 (stereo not given) | inconclusive: -51.9%
31 | Cc1ccc(-n2c(COc3ccccc3)n[nH]c2=S)cc1 | inconclusive: -40.4%
32 | COc1ccc(NC(=O)c2cc(F)cc(F)c2)cc1S(=O)(=O)N1CCCCC1 | inconclusive: -52.3%
33 | CCC1CCCCN1CCCNC(=O)c1cc2c(Cl)nc3ccccc3c2s1 (stereo not given) | inconclusive: -48% and active: -99.5%
34 | CN(c1ccccc1)S(=O)(=O)c1cccc(NC(=O)CN2C(=O)NC3(CCCCC3)C2=O)c1 | inactive: 3.65%
35 | Cc1c(C(=O)N2c3ccccc3Sc3ccccc32)cccc1[N+](=O)[O-] | inconclusive: -49.8%
36 | Cc1ccc2nc(-c3ccc(O)cc3)c(Nc3ccc4c(c3)OCCO4)n2c1 | inactive: 95% and inactive: 60.5%
37 | CCN(CC)C(=O)C1CCCN(C(=O)Nc2ccc(NC(=O)N3CCCC(C(=O)N(CC)CC)C3)cc2)C1 (stereo not given) | inconclusive: -46.8%
38 | COc1ccc(CCNC(=O)C(C)c2ccc([N+](=O)[O-])cc2)cc1 (stereo not given) | inconclusive: -44.9%
39 | FC(F)(F)c1nc(NCc2cccnc2)c2ccccc2n1 | active: -61.9%
40 | COc1cccc(Oc2nc(-c3ccccc3O)nc3ccccc23)c1 | inactive: 1.11%
41 | CC(=O)Nc1ccc(S(=O)(=O)Nc2ccc(Nc3ccccc3)cc2)cc1 | inconclusive: -46.3%
42 | COc1ccc(-c2nnc(SCC(=O)N3CCCC(C)C3)o2)c(OC)c1 (stereo not given) | inconclusive: -40.4%
43 | COc1cccc(CCNC(=O)c2cc(COc3cccc(OC)c3)on2)c1 | inactive: 2.09%
44 | COc1cc(OC)cc(C(=O)Nc2ccc3nc(N4CCCCC4)cc(C)c3c2)c1 | inconclusive: -45%

Row | SMILES | activity change, negative = inhibition
45 | N#CC1=C(SCC(N)=O)NC2=C(C(=O)c3ccccc32)C1c1ccc(Cl)cc1 (stereo not given) | active: -60.4%
46 | Cn1nc(C(F)(F)F)c(C(=O)Nc2ccc(F)cc2)c1Cl | inconclusive: -41.3%
47 | C=CCOC(=O)C(C#N)c1nc2ccccc2nc1N1CCN(c2ccccc2OC)CC1 (stereo not given) | inactive: 11.2%
48 | COc1ccc(/C=N/OCC(=O)N=Nc2c(O)[nH]c3ccc(Br)cc23)cc1 | inconclusive: -40.9%
49 | Cc1ccc(NS(=O)(=O)c2ccc(C)c(NC(=O)COc3ccc4ccccc4c3)c2)c(C)c1 | active: -81.5%
50 | COc1ccc(-c2onc(C)c2C)cc1S(=O)(=O)N(C)Cc1ccco1 | inconclusive: -55.7%
51 | COc1ccc(S(=O)(=O)N2CCCCC2)cc1NC(=O)CN1CCN(C(C)=O)CC1 | inconclusive: -50.9%
52 | OCC[C@@H]1C[C@H](O)[C@@H](O)[C@@]2(Cc3ccccc3O2)O1 | inactive: 46.8%
53 | O=c1[nH]cnc2c1ncn2-c1ccc(N(CCO)CCO)cc1 | inactive: -12%
54 | CC1Sc2ccc(S(=O)(=O)CCC(=O)N(C)Cc3ccccc3)cc2NC1=O (stereo not given) | inconclusive: -51.3%
55 | COc1ccc(OCCCCn2c(C3CC(=O)N(c4cccc(Cl)c4)C3)nc3ccccc32)cc1 (stereo not given) | inactive: -6.52%
56 | C=CCn1c(SCC(=O)N(CC)C2CCS(=O)(=O)C2)nc2cc(C(=O)O)ccc2c1=O (stereo not given) | inactive: -39.3%
57 | C=C(C)Cn1c(-c2ccncc2)n[nH]c1=S | inconclusive: -48.3%
58 | O=C(C[C@@H]1C/C=C/CC[C@@H](Cc2ccc(F)cc2)C(=O)OC[C@H](Cc2ccccc2)NC1=O)N[C@H](CO)Cc1ccccc1 | inactive: -6.56%
59 | Cc1ccc(Cl)cc1NC(=O)CSC1=Nc2ccccc2C2=NC(Cc3ccccc3)C(=O)N12 (stereo not given) | inconclusive: -45.8%
60 | COc1ccc(-c2cc(C(=O)Nc3cccc(Cl)c3)no2)cc1 | inactive: 1.35%
61 | Cn1ccnc1SCCNC(=O)CCc1nnc(CCc2ccccc2)o1 | inconclusive: -42.1%
62 | O=C1CCNCCN1[C@H](CO)c1ccccc1 | inactive: -35.8%
63 | O=C1C(CSCc2ccccc2)NC(=S)N1c1ccccc1 (stereo not given) | inactive: 34.1%
64 | CCOC(=O)Cn1nc(C)cc1NC(=O)c1ccncc1 | inconclusive: -50.3%
65 | CCCc1nc(-c2cc3ccc(C)cc3[nH]c2=O)no1 | inconclusive: -57.1%
66 | Cc1ccc(OCc2cnc(Cl)s2)c(C)c1 | inconclusive: -50.6%

Row | SMILES | activity change, negative = inhibition
67 | COc1ccc(OC)c(S(=O)(=O)N/N=C(/C)c2ccc3c(c2)OCO3)c1 | inconclusive: -48.2%
68 | Cc1cccc(CC2SC(N3CCN(c4ccccc4)CC3)=NC2=O)c1 (stereo not given) | inconclusive: -49.1%
69 | Cc1nnc(SCC(=O)Nc2ccc(Br)cc2)[nH]c1=O | inactive: -22.8%
70 | O=C(CSc1ncnc2c1cnn2-c1ccccc1)Nc1ccccc1 | inconclusive: -42.5%
71 | COc1ccc(CCNC(=O)COc2ccc([N+](=O)[O-])cc2)cc1 | inconclusive: -51.5%
72 | CC(NC(=S)NCc1ccccc1)C12CC3CC(CC(C3)C1)C2 (stereo not given) | inconclusive: -43.5%
73 | CC(C)(O)C#Cc1ccc([C@@H]2C[C@H]3CN(c4ccccc4)C(=O)[C@]34CCCN24)s1 | active: -99.2%
74 | CCOC(=O)CC(=O)CSc1nc(N)c(C#N)c(-c2ccc(F)cc2)c1C#N | inconclusive: -46.2%
75 | COc1ccc(NC(=O)Cn2nnc(C(=O)NCCc3ccccc3)c2N)c(OC)c1 | inconclusive: -57.6%
76 | CN1CCN(C(=S)c2ccc(N(C)C)cc2)CC1 | active: -108%
77 | CCCCN(CCCC)CC(O)Cn1cc(/C=C/C(=O)c2ccccc2)c2ccccc21 (stereo not given) | active: -106%
78 | COc1cccc(NC(=O)Nc2cc(C)ccc2F)c1 | inactive: 5.22%
79 | CCN(CC)C(=O)C1CCCN(C(=O)c2cc(COc3ccc4ncccc4c3)on2)C1 (stereo not given) | inconclusive: -44.3%
80 | CC(=O)Nc1cccc(NC(=O)CSc2ccc(C(F)(F)F)cc2[N+](=O)[O-])c1 | inconclusive: -45.6%
81 | Cn1ccc2c(-c3ccc(F)nc3)cc3c(c21)C1CCC3C1 (stereo not given) | inconclusive: -47.4%
82 | Cn1c(Sc2ccc(C(F)(F)F)cc2[N+](=O)[O-])nnc1-c1ccccc1 | inconclusive: -42.7%
83 | CCCn1nnc(NC(=O)c2ccco2)n1 | inactive: 106%
84 | CCCSc1ccccc1C(=O)N1CCN(C(=O)c2ccco2)CC1 | active: -101%
85 | Cc1cccc2c(C(=O)N3CCN(c4ccccc4)CC3)cc(-c3ccncc3)nc12 | inconclusive: -56%
